In PMC8668938:
These are yes or no findings as the source states them, for the method shown. Binding seen in cells or lysates may run through a third protein. Some binding calls cover weakened binding; strength is not graded here.

Sequences of proteins named here, by UniProt entry; tags and fusion partners are left off. A change or cut given only in a name is not applied to a line headed by its entry. A line that says so, or that is headed by a name, gives the form on record, which may keep a tag or linker. Residues count along the entry.
UniProt Q14416: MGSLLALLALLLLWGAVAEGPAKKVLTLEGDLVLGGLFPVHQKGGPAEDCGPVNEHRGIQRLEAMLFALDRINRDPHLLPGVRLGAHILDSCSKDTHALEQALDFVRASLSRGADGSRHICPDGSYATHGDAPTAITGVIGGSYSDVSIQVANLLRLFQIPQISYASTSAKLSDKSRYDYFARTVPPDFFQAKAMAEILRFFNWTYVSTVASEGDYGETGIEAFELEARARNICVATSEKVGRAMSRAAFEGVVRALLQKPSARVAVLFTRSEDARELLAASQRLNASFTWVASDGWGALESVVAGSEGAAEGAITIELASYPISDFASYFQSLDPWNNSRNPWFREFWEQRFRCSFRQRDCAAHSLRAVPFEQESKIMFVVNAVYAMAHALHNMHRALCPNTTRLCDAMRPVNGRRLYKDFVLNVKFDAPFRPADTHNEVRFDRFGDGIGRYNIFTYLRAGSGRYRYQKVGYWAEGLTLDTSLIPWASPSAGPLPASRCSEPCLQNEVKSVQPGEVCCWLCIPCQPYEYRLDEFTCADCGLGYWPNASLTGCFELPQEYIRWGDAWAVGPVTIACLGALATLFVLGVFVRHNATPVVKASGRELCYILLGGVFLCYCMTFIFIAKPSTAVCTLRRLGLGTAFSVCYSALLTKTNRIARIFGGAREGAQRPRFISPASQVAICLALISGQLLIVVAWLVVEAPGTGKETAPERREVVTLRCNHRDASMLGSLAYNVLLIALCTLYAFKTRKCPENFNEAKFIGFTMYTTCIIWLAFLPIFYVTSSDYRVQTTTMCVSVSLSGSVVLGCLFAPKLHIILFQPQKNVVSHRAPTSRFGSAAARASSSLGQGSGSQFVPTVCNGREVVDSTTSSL
Flag-tagged metabotropic glutamate receptor subtype 2 (mGluR2-Flag): residues 19-872 of Q14416
N-terminal GST-tagged soluble ectodomain of mGluR2 (mGluR2-GST, aa 19-567): residues 19-567 of Q14416
UniProt P27487: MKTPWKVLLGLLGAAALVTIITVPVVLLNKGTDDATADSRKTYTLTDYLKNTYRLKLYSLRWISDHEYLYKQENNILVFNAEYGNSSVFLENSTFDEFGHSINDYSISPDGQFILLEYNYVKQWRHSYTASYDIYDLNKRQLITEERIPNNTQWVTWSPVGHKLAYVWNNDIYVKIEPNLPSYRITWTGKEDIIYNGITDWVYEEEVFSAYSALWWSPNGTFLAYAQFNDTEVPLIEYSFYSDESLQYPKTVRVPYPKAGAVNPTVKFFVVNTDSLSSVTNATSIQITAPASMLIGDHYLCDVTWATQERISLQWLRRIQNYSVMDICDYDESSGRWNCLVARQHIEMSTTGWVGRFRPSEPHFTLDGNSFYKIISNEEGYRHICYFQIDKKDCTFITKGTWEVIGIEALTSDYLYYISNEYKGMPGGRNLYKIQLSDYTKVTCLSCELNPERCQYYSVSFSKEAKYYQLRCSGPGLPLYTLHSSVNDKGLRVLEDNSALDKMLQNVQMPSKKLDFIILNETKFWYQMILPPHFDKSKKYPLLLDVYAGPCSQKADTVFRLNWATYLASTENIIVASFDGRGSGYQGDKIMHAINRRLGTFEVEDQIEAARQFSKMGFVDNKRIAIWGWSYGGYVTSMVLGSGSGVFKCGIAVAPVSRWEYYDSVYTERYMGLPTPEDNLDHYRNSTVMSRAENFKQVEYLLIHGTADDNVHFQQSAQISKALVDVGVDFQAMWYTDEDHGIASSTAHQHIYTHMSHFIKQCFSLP

Columns and labels:
[1] = target: Flag-tagged metabotropic glutamate receptor subtype 2 (mGluR2-Flag) (UniProt Q14416); assay: co-IP
[2] = target: N-terminal GST-tagged soluble ectodomain of mGluR2 (mGluR2-GST, aa 19-567) (UniProt Q14416); assay: pull-down; only the target purified

Substance	binding [1]	binding [2]
Myc-tagged human DPP4 (DPP4-Myc) (from UniProt P27487 1-766) (receptor)	binds	binds
Myc-tagged SARS-CoV spike protein (SARS-CoV S-Myc) (from UniProt P59594)	binds	
